These are yes or no findings as the source states them, for the method shown. Binding seen in cells or lysates may run through a third protein. These calls come from enrichment with a bait or labelling near it, and not all partners need be listed.

Chains of the proteins cited; added tags and fusions are not shown.
UniProt Q04206: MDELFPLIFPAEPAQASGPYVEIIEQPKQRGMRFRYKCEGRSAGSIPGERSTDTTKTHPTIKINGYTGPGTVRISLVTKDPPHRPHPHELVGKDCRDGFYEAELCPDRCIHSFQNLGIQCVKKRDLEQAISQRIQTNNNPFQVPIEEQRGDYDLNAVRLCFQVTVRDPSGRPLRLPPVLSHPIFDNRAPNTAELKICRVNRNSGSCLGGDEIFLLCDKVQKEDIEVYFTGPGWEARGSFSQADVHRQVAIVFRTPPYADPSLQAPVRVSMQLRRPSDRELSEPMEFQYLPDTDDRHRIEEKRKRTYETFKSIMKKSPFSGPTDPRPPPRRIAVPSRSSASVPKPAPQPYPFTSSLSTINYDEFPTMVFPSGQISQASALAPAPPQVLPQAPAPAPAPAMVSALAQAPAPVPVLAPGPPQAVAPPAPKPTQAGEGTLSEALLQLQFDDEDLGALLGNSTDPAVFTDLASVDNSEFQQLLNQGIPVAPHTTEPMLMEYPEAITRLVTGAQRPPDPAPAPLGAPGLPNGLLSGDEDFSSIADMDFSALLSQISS
UniProt Q7Z6E9: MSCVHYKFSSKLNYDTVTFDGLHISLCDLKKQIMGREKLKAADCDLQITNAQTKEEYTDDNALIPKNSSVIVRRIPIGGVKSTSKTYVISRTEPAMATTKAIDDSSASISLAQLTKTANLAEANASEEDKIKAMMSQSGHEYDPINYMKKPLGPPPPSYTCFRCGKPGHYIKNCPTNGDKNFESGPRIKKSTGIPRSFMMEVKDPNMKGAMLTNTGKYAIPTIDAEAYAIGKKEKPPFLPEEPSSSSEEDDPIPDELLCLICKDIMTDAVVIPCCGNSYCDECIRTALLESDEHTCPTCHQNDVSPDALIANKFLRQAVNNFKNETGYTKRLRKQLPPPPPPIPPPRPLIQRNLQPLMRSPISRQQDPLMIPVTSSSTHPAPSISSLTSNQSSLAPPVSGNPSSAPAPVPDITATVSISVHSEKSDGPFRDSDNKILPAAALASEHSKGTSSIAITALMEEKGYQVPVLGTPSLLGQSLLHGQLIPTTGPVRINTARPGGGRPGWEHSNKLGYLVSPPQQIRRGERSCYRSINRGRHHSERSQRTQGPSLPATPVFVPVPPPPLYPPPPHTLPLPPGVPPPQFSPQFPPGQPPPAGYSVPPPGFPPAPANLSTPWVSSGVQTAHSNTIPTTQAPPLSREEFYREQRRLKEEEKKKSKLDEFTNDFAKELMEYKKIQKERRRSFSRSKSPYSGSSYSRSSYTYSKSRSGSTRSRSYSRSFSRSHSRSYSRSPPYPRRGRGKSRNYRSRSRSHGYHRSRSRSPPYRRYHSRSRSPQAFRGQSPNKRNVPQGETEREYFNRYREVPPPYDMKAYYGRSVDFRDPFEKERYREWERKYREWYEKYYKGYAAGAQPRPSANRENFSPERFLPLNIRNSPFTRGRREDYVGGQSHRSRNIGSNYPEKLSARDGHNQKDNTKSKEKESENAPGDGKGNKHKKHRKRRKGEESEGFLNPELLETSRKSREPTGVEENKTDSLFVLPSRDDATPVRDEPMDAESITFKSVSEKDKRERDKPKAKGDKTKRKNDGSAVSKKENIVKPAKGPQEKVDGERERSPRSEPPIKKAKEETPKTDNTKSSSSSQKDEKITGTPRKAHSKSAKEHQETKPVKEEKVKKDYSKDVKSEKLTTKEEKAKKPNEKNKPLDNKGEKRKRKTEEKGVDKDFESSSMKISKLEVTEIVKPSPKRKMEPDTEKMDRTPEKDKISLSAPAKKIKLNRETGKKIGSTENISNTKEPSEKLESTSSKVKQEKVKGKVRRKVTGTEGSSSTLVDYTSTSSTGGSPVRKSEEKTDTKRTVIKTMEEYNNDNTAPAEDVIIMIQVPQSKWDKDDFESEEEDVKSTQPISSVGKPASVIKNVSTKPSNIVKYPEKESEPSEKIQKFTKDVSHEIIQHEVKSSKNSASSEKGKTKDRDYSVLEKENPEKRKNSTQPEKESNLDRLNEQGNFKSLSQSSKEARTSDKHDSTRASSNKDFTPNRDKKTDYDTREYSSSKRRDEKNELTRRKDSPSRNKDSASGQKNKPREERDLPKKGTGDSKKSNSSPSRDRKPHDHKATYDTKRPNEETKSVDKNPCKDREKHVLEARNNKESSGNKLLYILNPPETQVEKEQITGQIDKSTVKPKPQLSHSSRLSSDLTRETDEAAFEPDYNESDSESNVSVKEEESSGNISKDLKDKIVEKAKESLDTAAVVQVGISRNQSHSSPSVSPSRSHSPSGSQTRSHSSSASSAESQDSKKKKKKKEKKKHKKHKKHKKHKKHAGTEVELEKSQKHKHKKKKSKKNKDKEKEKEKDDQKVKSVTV
UniProt Q93008: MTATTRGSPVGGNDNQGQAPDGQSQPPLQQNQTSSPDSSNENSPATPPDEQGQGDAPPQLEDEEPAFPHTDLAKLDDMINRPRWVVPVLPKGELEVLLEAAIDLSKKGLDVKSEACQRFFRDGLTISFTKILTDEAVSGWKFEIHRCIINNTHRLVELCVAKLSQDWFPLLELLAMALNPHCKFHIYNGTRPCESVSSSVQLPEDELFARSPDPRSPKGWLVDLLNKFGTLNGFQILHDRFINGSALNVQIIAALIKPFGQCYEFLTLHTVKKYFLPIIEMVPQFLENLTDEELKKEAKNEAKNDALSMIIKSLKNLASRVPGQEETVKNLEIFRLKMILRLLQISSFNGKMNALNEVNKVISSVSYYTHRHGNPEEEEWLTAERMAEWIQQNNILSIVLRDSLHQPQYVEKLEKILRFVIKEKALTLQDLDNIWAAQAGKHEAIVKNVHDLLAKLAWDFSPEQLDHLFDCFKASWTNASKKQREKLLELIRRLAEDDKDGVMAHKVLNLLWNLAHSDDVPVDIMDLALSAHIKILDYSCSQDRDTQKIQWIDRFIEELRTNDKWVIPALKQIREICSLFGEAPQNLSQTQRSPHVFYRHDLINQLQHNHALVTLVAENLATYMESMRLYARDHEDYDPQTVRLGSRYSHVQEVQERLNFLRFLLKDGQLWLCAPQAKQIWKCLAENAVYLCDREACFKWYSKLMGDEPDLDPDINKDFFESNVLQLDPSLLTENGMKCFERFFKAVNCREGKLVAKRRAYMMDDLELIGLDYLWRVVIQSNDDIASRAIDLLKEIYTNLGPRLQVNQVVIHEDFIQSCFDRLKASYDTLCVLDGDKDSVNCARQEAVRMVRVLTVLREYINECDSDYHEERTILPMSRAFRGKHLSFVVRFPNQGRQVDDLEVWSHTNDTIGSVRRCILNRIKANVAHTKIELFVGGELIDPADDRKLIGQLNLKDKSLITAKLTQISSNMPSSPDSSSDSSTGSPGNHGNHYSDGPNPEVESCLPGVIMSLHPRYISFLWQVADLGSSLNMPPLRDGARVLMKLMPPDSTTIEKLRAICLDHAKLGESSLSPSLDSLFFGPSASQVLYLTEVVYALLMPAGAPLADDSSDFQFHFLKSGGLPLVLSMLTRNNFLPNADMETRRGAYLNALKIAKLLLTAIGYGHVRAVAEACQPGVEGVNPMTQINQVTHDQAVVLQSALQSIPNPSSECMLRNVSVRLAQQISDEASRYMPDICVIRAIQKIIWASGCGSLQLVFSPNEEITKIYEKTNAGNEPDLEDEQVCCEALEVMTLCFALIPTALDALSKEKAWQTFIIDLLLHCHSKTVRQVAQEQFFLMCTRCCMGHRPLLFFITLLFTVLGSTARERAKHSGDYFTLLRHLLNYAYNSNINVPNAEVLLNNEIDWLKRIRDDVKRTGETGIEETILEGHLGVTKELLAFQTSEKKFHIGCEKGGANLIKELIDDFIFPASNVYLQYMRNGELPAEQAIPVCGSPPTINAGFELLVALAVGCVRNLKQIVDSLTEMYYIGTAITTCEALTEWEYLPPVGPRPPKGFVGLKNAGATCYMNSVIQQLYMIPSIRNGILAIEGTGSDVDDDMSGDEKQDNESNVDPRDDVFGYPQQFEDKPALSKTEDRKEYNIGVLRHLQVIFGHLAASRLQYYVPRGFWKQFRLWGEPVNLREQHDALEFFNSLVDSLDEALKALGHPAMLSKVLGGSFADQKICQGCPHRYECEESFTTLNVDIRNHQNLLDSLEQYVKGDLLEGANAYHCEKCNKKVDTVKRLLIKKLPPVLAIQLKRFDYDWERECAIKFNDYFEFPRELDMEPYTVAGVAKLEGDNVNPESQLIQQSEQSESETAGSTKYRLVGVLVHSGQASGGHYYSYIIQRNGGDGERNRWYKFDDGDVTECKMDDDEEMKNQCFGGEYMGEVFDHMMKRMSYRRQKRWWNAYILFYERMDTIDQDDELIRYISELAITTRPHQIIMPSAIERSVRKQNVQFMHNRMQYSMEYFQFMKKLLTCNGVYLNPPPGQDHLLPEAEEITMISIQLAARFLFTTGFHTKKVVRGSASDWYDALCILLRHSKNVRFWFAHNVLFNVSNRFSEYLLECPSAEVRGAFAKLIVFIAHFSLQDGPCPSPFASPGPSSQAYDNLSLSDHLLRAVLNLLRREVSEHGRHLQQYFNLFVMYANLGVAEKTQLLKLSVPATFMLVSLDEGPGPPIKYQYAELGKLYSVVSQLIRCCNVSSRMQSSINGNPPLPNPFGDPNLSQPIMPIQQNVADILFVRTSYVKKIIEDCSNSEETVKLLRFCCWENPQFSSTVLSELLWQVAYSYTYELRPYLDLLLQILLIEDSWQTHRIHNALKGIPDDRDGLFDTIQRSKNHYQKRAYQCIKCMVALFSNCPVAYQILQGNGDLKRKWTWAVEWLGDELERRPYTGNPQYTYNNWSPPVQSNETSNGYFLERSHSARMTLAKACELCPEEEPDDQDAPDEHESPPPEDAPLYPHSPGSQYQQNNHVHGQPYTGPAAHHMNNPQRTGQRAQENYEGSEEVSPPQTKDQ

This experiment deals with RELA (human (endogenous in TFE301-1)) (UniProt Q04206). Put plainly: affinity purification with mass spectrometry; IP of RELA from TFE301-1 cells with an anti-RELA antibody, compared with an IgG control; MS on a Q-Exactive.
Turning to “HERC2 (from UniProt O95714 1-4834) (enzyme)”, the binding result is given as “binds”.

Consider “RBBP6 (from UniProt Q7Z6E9 1-1792) (enzyme)”, for which the binding entry is reported as “binds”.

For “UBR5 (from UniProt O95071 1-2799) (enzyme)”, the binding result is “binds”.

Consider “USP9X (from UniProt Q93008 1-2554) (enzyme)”, for which the binding result is listed as “binds”.

These data come from paper PMC12767095.
